# Part of at least one peptide drawing is inferred or uncertain, most often the ends. Where a SMILES comes first, the peptide text is derived from it. [ ]: non-standard residue; d: D form. dPhe(4-Cl) = N[C@H](Cc1ccc(Cl)cc1)C(=O)O
# System: mature female rats
# Experiment: Antiovulatory activity (blockade of ovulation) in proestrus female rats, test of de la Cruz et al.
# Format: in vivo, rat
# Conditions: Table I; dose 0.015 mg; in 20% propylene glycol in physiologic saline; 12 noon of proestrus
# Procedure: The analogs are administered in 20% propylene glycol in physiologic saline (see Table I) or as a suspension in corn oil (see Table II) at 12 noon of the day of proestrus. On the following day, the rats are sacrificed, their fallopian tubes and uteri flushed with saline and the washed examined for ova.
# The test results for several analogs are given in Table I. In Table II, a comparison, between the compound of formula I in which X is acetyl, R^1 is D-Phe, R^2 is D-p-Cl-Phe, R^3 is D-Trp, R^4 is D-Trp and R^5 is Gly, the title compound of Example 7, and the compound of the prior art, [Ac-D-Phe^1, D-Phe^2, D-Trp^3,6 ]-LH-RH, noted hereinbefore, is shown. As noted above, a different carrier is used for administering the compounds in Table I than in Table II.
smiles,measurement,value
"CC(=O)N[C@H](Cc1c[nH]c2ccccc12)C(=O)N[C@H](Cc1ccc(Cl)cc1)C(=O)N[C@H](Cc1c[nH]c2ccccc12)C(=O)N[C@@H](CO)C(=O)N[C@@H](Cc1ccc(O)cc1)C(=O)N[C@H](Cc1c[nH]c2ccccc12)C(=O)N[C@@H](CC(C)C)C(=O)N[C@@H](CCCNC(=N)N)C(=O)N1CCC[C@H]1C(=O)NCC(N)=O [Example 15, N-Acetyl-D-tryptophyl-D-p-chlorophenylalanyl-D-tryptophyl-L-seryl-L-tryosyl-D-tryptophyl-L-leucyl-L-arginyl-L-prolyl-glycinamide] (Ac-[dW][dPhe(4-Cl)][dW]SY[dW]LRPG-NH2)",% Blockade of Ovulation,90%
